First the molecules themselves.
T1: Biotin-APL27-14
T1 sequence (peptide, N-terminal biotin): GPGAWQGGRRKFRR

B1: anti-apelin mAb C27 (antibody, V domains shown)
VH: QSVEESGGRLVTPGGSLTLTCTVSGIDLINAWMNWVRQAPGKGLEWIGTTTDDDTIYYANWAKGRFTISRTSTTVDLKVTSLTSEDTATYFCSKGRIWGPGTLVTVSL
VL: QVLTQTPASVSAAVGGTVTINCQASQSVYDGNWLCWYQQKPGQPPKRLIYKASTLESGVPSRFKGSGSGTQFTLTISDLECDDAATYYCQGGFTSNIYPFAGGTEVVVK
B2: anti-apelin mAb C5 (antibody, V domains shown)
VH: QSVEESGGRLVTPGTPLTLTCTVSGFSLSGAWMNWVRQAPGKGLEWIGVVSSDDNIYYADWAKGRFTISKTSTTVDLKLTSPTTEDTATYFCARNLGTIWGPGTLVTVSS
VL: QVLTQTESPVSAAVGGTVTINCQSSQSVWSNYLSWFQQKPGQPPKVLIYGTSKLPSGVPSRFSGSGSGTEFTLTINDLECDDAATYYCAGGYSGHIYSFGGGTEVVVK
B3: anti-apelin mAb C4 (antibody, V domains shown)
VH: LEQSGGGAEGGLVKPGGSLELCCKASGFTLSSSYWICWVRQAPGKGLEWIGCIHYGSSGTAYYASWVNGRFTLSRDIDQSTGCLQLNSLTAADTAMYYCARFLSDMYYYNLWGPGTLVTVSS
VL: QVLTQTPASVSAAVGGTVTINCQASQSIYNNNQLSWYQQKPGQPPKLLIYYASTLASGVSSRFKGSGSGTQFTLTISGVQCDDAATYYCQGQFNCRSADCHAFGGGTEVVVK
B4: anti-apelin mAb C7 (antibody, V domains shown)
VH: QSLEESGGRLAKPDETLTLTCTVSGIDLNSHAMDWVRQAPGKGLEWIGVIAPDTRTYYATWARGRFTISKTSSTSVELKMTSLTTEDTATYFCAAYPIEPGANIWGPGTLVTVSS
VL: DPVLTQTPSPVSAPVGGTVTIGCQASESVDYNNQLSWYQQKPGQAPKRLMYYVSTLDSGVPSRFKGSGSGTQFTLTISDLECDDAATYYCQGGYPYNIYPFGGGTEVVVK
B5: anti-apelin mAb C17 (antibody, V domains shown)
VH: QSVEESGGRLVKPDETLTLTCAVSGIDLSSNAMNWVRQAPGEGLEWIGSMYTDGTTYYANWAKGRFTISRASSTTVDLKMTSLTAADTATYFCARGDIWGPGTLVTVSS
VL: QVLTQTASPVSAAVGGTVTISCQSSQSVYNNNWLAWFQQKPGQPPKRLIYGTSELASGVPSRFKGSGSGTQFTLTISGVQCDDAATYYCLGTYSSNIHVFGGGTEVVVK
B6: anti-apelin mAb C11 (antibody, V domains shown)
VH: QSLEESGGRLVSPGGSLTLTCTVSGIDLSSHAMDWVRQAPGKGLEWIGVIAPNDATYYPTWARGRFTISKTSTTVGLKMTRLTTEDTATYFCAAYPIDAGANVWGPGTLVTVSS
VL: DPMLTQTASPVSAHVGGTVTINCQSSESVDYNNQLSWYQQKPGQPPKRLMYYVSTLDSGVPSRFKGSGSGTQFSLTISDLECDDAGTYYCQGGYISNLYPFGGGTEVVVK
B7: anti-apelin mAb C20 (antibody, V domains shown)
VH: QSLEESGGRLVTPGGSLTLTCTVSGIDLNNYAIDWVRQAPGKGLEWIGVIAPNHYTCYPTWARGRFTISKTSTTVDLKMTSLTTEDTATYFCAAYPIETGSNIWGPGTLVIVSS
VL: B6 VL with A8P, P10S, H14A, N22S, Y31M, T71I, Q72H, D83A
B8: anti-apelin mAb C14 (antibody, V domains shown)
VH: B6 VH with L3P, S12T, T22K, V23I, I26V, S30N, H31Y, F66L, G76D, A99V
VL: B6 VL with H14A
B9: anti-apelin mAb C10 (antibody, V domains shown)
VH: QSLEESGGRLVTPGGSLTLTCTVSGIDLNSYAIDWVRQAPGKGLEWIGVIAPSGTTYYPTWAKGRFTISKTSTTVDLKVTGLTTEDTATYFCAAYPIDPGSNIWGPGTLVTVSS
VL: DPVLTQTPSSVSAAVGGTATIGCQSSESVDYGNQLSWYQQKPGQPPKRLAYYVSILDAGVPSRFKGSGSGTQFTLTISDLECDDAATYYCQGGYISNLYPFGGGTEVVVQ
B10: anti-apelin mAb C12 (antibody, V domains shown)
VH: QSLEESGGRLVTPGGSLTLTCTVSGIDLSSYAIDWVRQAPGKGLEWIGVIAPSSTTYYPTWAKGRFTISKTSSTTVDLKVIGLTTEDTATYFCAAYPIDPGSNVWGPGTLVTVSS
VL: B9 VL with A19V, A50T
B11: anti-apelin mAb C1 (antibody, V domains shown)
VH: QSLEESGGRLVTPGGSLTLTCTVSGFSLSSYAMDWVRQAPGKGLEWIGVIAPNGATYYPTWARGRFTISKTSTTVDLKMTSLTAADTATYFCATYPIDAGANIWGPGTLVTVSS
VL: DPVLTQTPSSVSAAVGGTVTIGCQSSESVDNNNQLSWYQQKSGQPPKRLMYYVSTLDSGVPSRFKGSGSGTHFTLTISGVQCYDAATYYCQGGYISNLYPFGGGTEVVVK
B12: anti-apelin mAb C6 (antibody, V domains shown)
VH: B4 VH with A11V, N29S, S30N, H31Y, D53N, T54R, A59P, S75T, E77D, A95T
VL: B4 VL with A25S, A45P, P95I, Y96S
B13: anti-apelin mAb C22 (antibody, V domains shown)
VH: B7 VH with I33M, C57Y, A94T
VL: B11 VL with G22S, N31M, Q39H, H72Q, Y83D, A86G
B14: anti-apelin mAb C16 (antibody, V domains shown)
VH: B7 VH with N30S, I33M, C57Y, S81R, A94T, T99S
VL: B6 VL with M3V, A8P, P10S, H14A, N22G, D30G, Y31M
B15: anti-apelin mAb C9 (antibody, V domains shown)
VH: QEQLEESGGDLVKPEGSLTLTCTASGFSFSSSYWICWVRQAPGKGLEWIACIYQSGDGRTWYASWAEGRFTISKTSPTTVTLQMASLTAADTATYFCARCPHNTYSHFDLWGPSTLVTVSS
VL: DIVMTQTPASVEAAVGGTVTIKCQASQSINSWLSWYQQKPGQPPKPLIYGASNLASGVPSRFKGSGSGTQFTLTISDLECADAATYSCLGYYYSSYNSVGFWAFGGGTEVVVK
B16: C13 (antibody, V domains shown)
VH: QSLEESGGRLAKPGETLTLTCTVSGIDLNSHAVDWVRQAPGKGLEWIGVIGPGGNTYYASWAKGRFTISKTSSTTVDLKMTSLTAEDTATFFCATYPIYSGDNIWGPGTLVTVSS
VL: DPVLTQTPPSVSAAVGGTVTINCQSSESVDNNNQLSWYQQKVGQPPKRLMYYASTLDSGVPSRFKGGGSGTHFTLTITDLECDDAATYYCQGGTATNIYPFGGGTEVVVK
B17: anti-apelin mAb C26 (antibody, V domains shown)
VH: QEQLEESGGGLVQPEGSLTLTCTASGFTLSNYWMSWVRQAPGKGLVWIGCIDIGSDDTYYASWAKGRFTISRTSSTTVTLQVTSLTAADTATYFCARSGGLWGPGTLVTVSS
VL: QVLTQTPSSTSAAVGGTVTINCQASQSVYNNNDLAWYQQKPGQPPKRLIYEASKLASGVPSRFSGSGSGTQFTLTISDLECDDAATYYCAGGWSGNFYVFGGGTEVVVK

Substitutions are numbered along the chain they refer to. Results are given in words; binding and its absence hold for the method and conditions named.

The target of this assay is T1, Biotin-APL27-14. Description: ELISA, peptide on neutravidin plate, mAb 200 ng/ml, A405.
In the case of B1, the binding result is on record as “no binding (tested: 200 ng/ml)”. Consider B2, for which the binding entry is listed as “no binding (tested: 200 ng/ml)”.

Regarding B3, the binding result is reported as “no binding (tested: 200 ng/ml)”.

Consider B4, for which the binding result is recorded as “no binding (tested: 200 ng/ml)”. Take B5: the binding result was “no binding (tested: 200 ng/ml)”. For B6 the value was “no binding (tested: 200 ng/ml)”. On to B7, for which the binding entry is “no binding (tested: 200 ng/ml)”. Under B8 stands “no binding (tested: 200 ng/ml)”.

For the molecule B9, the binding result is listed as “no binding (tested: 200 ng/ml)”. As for B10, the binding result is “no binding (tested: 200 ng/ml)”. Turning to B11, the binding entry is recorded as “no binding (tested: 200 ng/ml)”. For the molecule B12, the binding entry was “no binding (tested: 200 ng/ml)”. Under B13 stands “no binding (tested: 200 ng/ml)”; under B14, “no binding (tested: 200 ng/ml)”; under B15, “no binding (tested: 200 ng/ml)”.

On to B16, for which the binding result is “no binding (tested: 200 ng/ml)”. On to B17, for which the binding result is on record as “no binding (tested: 200 ng/ml)”.

The values above are taken from US20200362021A1.
